# Source: PMC8835298
# No constants are given. Whether binding was seen depends on the method and setting. In cells and extracts the contact can be indirect. A yes stands for co-enrichment or nearness to the bait. Other partners may have been found.
# B1: dynein light-chain 1 (PBANKA_0708100) (protein, UniProt A0A509AMN4 1-198)
# chain: MNRTVVKEVTISQCIKNWEQKTGKKISEEENVSFICNIPLIEKLDQSINTLEKCKRLSLSTNRIEKFVPMSGLKNIEILSIGRNCIKKLQFLEDISGTLKQLWISYNNIDKLDNLQSLKNLQVLYLFHNKIKGLEEIDKLNTLPELIELGLKGNPIYEGRTNEYMKLVILKKLPQLKVVDNETITENQRNDSLTIEVV
# B2: dynein intermediate-chain, putative (PBANKA_1018300) (protein, UniProt A0A509AKV0 1-592)
# chain: MIDYYYCYTNNKSAIGKKCKFSKSKSQIIGRIEPNNQIKKKYMYKENINYNDENIKKYSEEYINIESVKLENKFFYHSEGGWTKDVDISEHQNKLKYIKRLDKDINLINSLKYLMNETTKIINKNNCINIYEEYFKDDIKNDEHFKIKSLLVIKDKLRKYNRFVTSIKWANDNTHKIAISYCVNNYQKILNNTPKNCLLYNLNEINNPYQILYSKSFIKCLRFNHKNSDLLLAGSYDGTIHLWDLRKKNNLCESSSINCSHKNIVNDITWLQTKTNNQCLSTSSDGLCLIWDIRNLSNHIESFYLNKDTTDTFDLLEKSNIISNNLGGTLSPDNPTKNTQKEHSTSKLDANDDNYYSANYIEWCLEAGPSKILVGTDEGYILSLSKRQSKHLELLQKYGTSNEKHLSAITSIKRVSINLKYFLTTDKWGFNIWSEDIKFPIISNYYNESIINKGHWIHDSPFFILTRKDGYLDFWNILSNFNEPTIKHKICNSSITEIDAHLNNRYISIGNEEGDIHILKLGKSFCTNSSENKNSLDELLERESKREKNLEYIRKQLNCIKKKKEYLSFSDIQIQDQQIKETERIYDSIRQL
# B3: kinesin 8B (PBANKA_0202700) (protein, UniProt A0A509AB64 1-1460)
# chain: MKDKEIVKLNSNGDNHLINLKNVQDKNLSSSGIPSRYSSFESDVQASKQKDDHIYNTDKLNKIMNNTSSIGDTQYCNNRIDDTKLPEKLLQKYFSNNSTYKYTNSIEHQNMMNAHNEDLSTYQKNEAAEHIDINNHNKEQKKNEHEELKGVHDLNFQNNSYKKEEICEKKLIEPIKNTSIKKEEDQKDTMKIFVSNYGDNIYRNTEIYKTHTESCRNFTDQKYKTQYYDENKLSPLYKNKSDKFYDTFSEEKKELHFNSIDELMKEIQIFNNSMQTITSNDPTFIQKNNKHIYSENNSNKREANEINNSLIIENTVSCSNISTDACFGESPQNSNREKSDILDNEEYNLQEHSNNSCYEKNESIKSFKNFVKSEIKTENSILFTEDKEPQHTELKQDNLMGSQLNKSDVEYTDQESDNNNSCKQNDVSSISMKLTDVEPYTKLDNEESIETSKISSNQWEEMKKSFYDIENNLLYLNRENNYSLERNIEGTELLNVNNSETNKEIKFEKNETPQISYHTDEYKEKNEEIIKSQLDSDKKSTIYNYIHKDSFPNYEYDDTETKHLNILKNCSEKDEAFQNKNNISEQFNYNYLQDFTNKQNSLNGFTPKDYQNNNNYYYTDKEIDIHSPYARRDVLPDLSLERCIYSKEGSPNGKTDTLNGPDTSNRTDASRINSAGKGRTPRSSKSGGSTKTAFAIVKTGKIKQAEKDLVKTPKVFKKTEGNTRTSVNGNSNGNVGTKSPSNYNISSSANYSTHCNNGGNGVTPTSTKTNKNEKDITYNMNVVIRCRPMSNSEKNEGAKNVIKIMDNKMIVLLDPSDNTDNVLRQNRTKEKRYCFDYVFDENSTQEDVYNNSVKPLVDAVIKGYNSTVFAYGATGAGKTHTIIGYKNEPGIMMMILQDLFKKIKTLKAMNEYKIKCSFIEIYNENICDLLNPSSEYLDLREDPVKGITVSNIFEVCTTSVEEIMELIHTGNRNRTQEPTDANRTSSRSHGVLQVIVEETEKGQGLYQQTKKGKLCVIDLAGSERASQTNNKGMRMLEGANINRSLLALGNVINALVSRSKGTSKSNFIPFRDSKLTRLLKDSLGGNCKTLMIANISPSHLSYEDTHNTLKYANRAKNIKNVVTSNSVVVKHHLTMYIDIIEKLKTEIECLKEQLNDKEKTHHFIISESNSTNYDYYDSVKDCDKNSSREELLNIIYFLKRENQKLRCNLGSITPHISTSDSSTPTNEFIKYTEEINNIKIVNEKLFIDNKKFKVNIQEYIQIIENIKEVNHKYKAQINSLKNMLYNHDVSHLQMRLWLDDLKRKYTQLKENITDKDNAQLLEGLQDELNKVLNERKQIKNFILNIEQNLVENKEVNMDALKGNQIKMLEENKNKMENQLQININQTNNLINKLVANIKDDQMKSFMYLFYTNTILMQEREDFQDMFELSSVIINHKEKQLQQLIETSKISNLFNIIKNKI
# Biological target: PbI2–mCherry (Plasmodium berghei)
# Assay: affinity purification with mass spectrometry; soluble proteins of purified P. berghei schizonts; RFP-Trap_A beads overnight at 4 °C in 20 mM Tris, 150 mM NaCl, 0.5% Triton X-100, pH 7.5; 10 washes; LC-MS/MS, 5 biological replicates against the parental wild type (t-test, FDR < 0.05, S0 = 1)
row,binding,Binder
1,binds,B1
2,binds,B2
3,binds,B3
